Cbl-b/c-Cbl Selectivity and IC50 data for one compound are collected here from patent publication US20260209222A1, “CBL-B MODULATORS AND USES THEREOF” (Nimbus Clio, Inc., priority 2022, published 2026).

Chains of the proteins cited; added tags and fusions are not shown. Residues count along the entry.
UniProt Q13191, 36-427 limits assumed: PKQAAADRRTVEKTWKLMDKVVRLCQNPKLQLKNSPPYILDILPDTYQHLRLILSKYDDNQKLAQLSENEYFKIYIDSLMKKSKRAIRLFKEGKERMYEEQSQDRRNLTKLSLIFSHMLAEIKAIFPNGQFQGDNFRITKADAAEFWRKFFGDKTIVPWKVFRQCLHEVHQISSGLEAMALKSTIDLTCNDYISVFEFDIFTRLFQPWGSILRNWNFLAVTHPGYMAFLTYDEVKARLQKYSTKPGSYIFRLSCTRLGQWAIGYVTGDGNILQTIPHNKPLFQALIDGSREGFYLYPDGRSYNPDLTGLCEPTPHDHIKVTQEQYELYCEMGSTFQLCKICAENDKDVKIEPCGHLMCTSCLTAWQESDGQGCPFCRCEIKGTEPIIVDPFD

The structures given here were assigned with low confidence; some may be wrong.

In experiment [1] the test system is Recombinant human c-Cbl (aa 47-435). Nature of the experiment: c-Cbl Biochemical Assay (TR-FRET). Conditions: ratio from the Cbl-b and c-Cbl TR-FRET biochemical assays. The method, then:
c-Cbl Biochemical Assay (TR-FRET)
Recombinant human c-Cbl (aa 47-435) was expressed in E coli, purified and biotinylated in vitro. The protein was diluted to 12 nM in freshly prepared assay buffer consisting of 50 mM HEPES, pH 7.0, 100 mM NaCl, 5 mM MgCl2, 0.01% Triton-X 100, 0.01% BSA and 1 mM DTT. Recombinant human Src (aa 254-536)-GSSGSS-Zap-70 (aa 281-297) fusion protein was expressed in E coli and purified. Protein was diluted in assay buffer to 5-20 nM and ATP was added to 1 mM. Recombinant human UBE2D2(C85K) was expressed in E coli, purified and ubiquitinated and Bodipy labelled in vitro. Protein was diluted to 200 nM in assay buffer without MgCl2 (or Cisbio PPI buffer). Streptavidin-Terbium was added to 2 nM and EDTA to 10 mM, to provide a binding assay mix. Compounds were dissolved in DMSO and diluted to prepare a ten-point half log dilution series. 100 nl of each compound concentration was dispensed in duplicate in a 384 well black assay plate using acoustic dispensing. […] The enzyme reaction was terminated and the binding reaction was initiated by adding 10p of binding assay mix to all wells and incubating the plate at RT for 60 min prior to assay read. […] The HTRF assay signal was measured at 520 nm on an Envision plate reader, with reference signal at 485 or 620 nm. […]
In general terms: Time-resolved FRET reads energy transfer from a long-lived donor to a nearby acceptor.

Experiment [2] concerns the target Recombinant human Cbl-b (aa 36-427) (Homo sapiens, UniProt Q13191). Nature of the experiment: Cbl-b Biochemical Assay (TR-FRET). The settings on record: read-out: TR-FRET Cbl-b IC50; 6 nM Cbl-b, 1-2.5 nM Src-Zap70, 0.5 mM ATP; HTRF signal at 520 nm. The method, then:
Cbl-b Biochemical Assay (TR-FRET)
Recombinant human Cbl-b (aa 36-427) was expressed in E coli, purified and biotinylated in vitro. The protein was diluted to 12 nM in freshly prepared assay buffer consisting of 50 mM HEPES, pH 7.0, 100 mM NaCl, 5 mM MgCl2, 0.01% Triton-X 100, 0.01% BSA and 1 mM DTT. Recombinant human Src (aa 254-536)-GSSGSS-Zap-70 (aa 281-297) fusion protein was expressed in E coli and purified. Protein was diluted in assay buffer to 2-5 nM and supplemented with ATP to 1 mM. Fluorescein-BODIPY labeled UBED2D(C85K)-Ub was prepared by conjugating ubiquitin (Ub) labeled at its N-terminus with Fluorescein-BODIPY maleimide (ThermoFisher Catalog no B10250) to E coli expressed and purified UBED2D(C85K) [see Dou et al Nature Structural and Molecular Biology 8: 982-987, 2013]. Recombinant human UBE2D2(C85K) was expressed in E coli, purified and ubiquitinated and Bodipy labelled in vitro. Protein was diluted to 200 nM in assay buffer without MgCl2 (or Cisbio PPI buffer). Streptavidin-Terbium was added to 2 nM and EDTA to 10 mM, to provide a binding assay mix. […] The enzyme reaction was terminated and the binding reaction was initiated by adding 10p of binding assay mix to all wells and incubating the plate at RT for 60 min prior to assay read. […] The HTRF assay signal was measured at 520 nm on an Envision plate reader, with reference signal at 485 or 620 nm. […]

On to `CN(C)C(=O)CNCc1cc(C(F)(F)F)c2oc(-c3cccc([C@]4(c5nncn5C)C[C@@H](C)C4)c3)nc2c1`, for which the Cbl-b/c-Cbl Selectivity in experiment [1] stood at 9. Also, the IC50 in experiment [2] lay in the range of 200 to 5000 nM.

One may read the IC50 as the midpoint of a concentration-inhibition curve.
